{
  "source": "PubChem BioAssay AID1347076",
  "about": "(National Center for Advancing Translational Sciences (NCATS), 2019)",
  "note": "Where “and” joins values, the source holds several entries; their conditions need not be identical. Equal values may be shown once. In all, about 400,000 compounds went through this assay and about 13,000 (3.2%) were called active. Inconclusive means that the source gave no clear call. Such entries were picked first, then a sample of the others. The call rests on the fitted dose curve; in most records, active means well fitted cell-killing curve with a large enough effect; inconclusive means small, poorly fitted or top-dose-only effect, or effect the other way; inactive means flat fitted curve, though single readings scatter. Potencies beside an inconclusive call are fits to weak or partial responses and may not hold up. Some structures have more than one record in an assay (separate samples or runs), and their calls can disagree. On the % scale 0 is the no-effect control and ±100 the full control effect; potency means the concentration at half of the fitted maximal effect.",
  "data": [
    {"test": "qHTS assay for MDR1-selective chemotherapeutics: Primary screen using the drug-selected MDR subline cells KB-V1; further: nearly all actives have a fitted effect of over 60% in size", "conditions": "KB-V1 MDR cells viability, CellTiter-Glo, 72 h; activity change, negative = cytotoxicity: at 46.1 µM (top of the series)", "in_short": "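KB-V1, DMEM (no phenol red) + 10% FBS; cpd pin-transferred, titration series; 72 h, 37 degrees C; CellTiter-Glo, luminescence. Data normalized, curve-fit.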", "values": [
      {"smiles": "O=S(=O)(c1ccccc1)N1Cc2ccccc2-n2nncc2C1", "Potency": "inconclusive: 20.6 µM [cytotoxic, single point]"},
      {"smiles": "Cc1ccc(NC(=O)c2snnc2C)cc1Cl", "Potency": "active: 10.3 µM"},
      {"smiles": "Cc1cc(NC(=O)CCl)no1", "Potency": "inconclusive: 29.1 µM [cytotoxic, single point]"},
      {"smiles": "CN1C2C=C(N(C(=O)c3ccc(Cl)cc3)c3ccccc3)CC1CC2", "note": "(stereo not given)", "Potency": "inconclusive: 16.4 µM [cytotoxic, partial curve, poor fit]"},
      {"smiles": "O=Cc1cn(Cc2ccc([N+](=O)[O-])cc2)c2ccccc12", "Potency": "inconclusive: 23.1 µM [cytotoxic, single point]"},
      {"smiles": "CCOC(=O)c1ccc(NC(=O)c2c(O)[nH]c(=O)[nH]c2=O)cc1", "Potency": "inactive"},
      {"smiles": "CN1C2CCC1/C(=C/c1ccccn1)C(=O)/C2=C\\c1ccccn1", "Potency": "inconclusive: 29.1 µM [cytotoxic, single point]"},
      {"smiles": "Cc1ccc(NC(=O)CN2C(=O)CN=C(c3ccccc3)c3cc(Cl)ccc32)cc1", "Potency": "inconclusive: 29.1 µM [cytotoxic, single point]"},
      {"smiles": "C[C@@H]1O[C@@H](O[C@H]2C[C@@H](O)[C@]3(CO)[C@H]4[C@H](O)C[C@]5(C)[C@@H](C6COC(=O)C6)CC[C@]5(O)[C@@H]4CC[C@]3(O)C2)[C@H](O)[C@H](O)[C@H]1O", "note": "(stereo not given in full)", "Potency": "active: 1.64 µM"},
      {"smiles": "CC(=O)OC(C)(C)/C=C/C(=O)C(C)(O)C1C(O)CC2(C)C3CC=C4C(CC(O)C(=O)C4(C)C)C3(C)C(=O)CC12C", "note": "(stereo not given)", "Potency": "active: 0.461 µM"},
      {"smiles": "CC(C)[C@H]1C(=O)O[C@H](C(C)C)C(=O)N(C)[C@@H](C(C)C)C(=O)O[C@H](C(C)C)C(=O)N(C)[C@@H](C(C)C)C(=O)O[C@H](C(C)C)C(=O)N1C", "Potency": "inconclusive: 11.6 µM [cytotoxic, partial curve, poor fit]"},
      {"smiles": "CCc1cccc(CC)c1NC(=S)N1CC2CC(C1)c1cccc(=O)n1C2", "note": "(stereo not given)", "Potency": "inactive"},
      {"smiles": "CN(C)c1ccc(/C=C/c2cc[n+](C)c3ccccc23)cc1", "Potency": "inconclusive: 18.4 µM [cytotoxic, single point] and active: 16.4 µM", "activity change, negative = cytotoxicity": "inconclusive: -31.5% [cytotoxic]"},
      {"smiles": "Cc1ccc(-n2c(O)c(C=NCCC3=CCCCC3)c(=O)[nH]c2=O)cc1", "Potency": "inconclusive: 29.1 µM [cytotoxic, single point]"},
      {"smiles": "CCOC(C(=O)OCCC[N+](C)(CC)CC)(c1ccccc1)c1ccccc1", "Potency": "inconclusive: 25.9 µM [cytotoxic, single point]"},
      {"smiles": "CC(=Nc1ccc(F)cc1)c1c(O)n(C)c(=O)[nH]c1=O", "Potency": "inconclusive: 29.1 µM [cytotoxic, single point]"},
      {"smiles": "Cn1nc(-c2ccccc2)nc2c(=O)n(C)c(=O)nc1-2", "Potency": "active: 5.8 µM"},
      {"smiles": "COC/C=C1\\CN2C3C[C@@H]1[C@H]1COC4=Nc5cc(OC)c(OC)c(OC)c5[C@@]43C[C@@H]12", "Potency": "inactive"},
      {"smiles": "CN(C)c1cccc(CN2CCN(c3ccccc3)CC2)c1", "Potency": "inactive"},
      {"smiles": "CCOc1ccc(N=Cc2c(O)n(-c3ccc(C)c(C)c3)c(=O)[nH]c2=O)cc1", "Potency": "inactive"},
      {"smiles": "COc1ccc(N/N=C/c2c(O)n(-c3cccc(C)c3)c(=O)[nH]c2=O)cc1", "Potency": "inactive"},
      {"smiles": "CCOC(=O)[C@]12Cc3cc(Cl)ccc3[C@H]1N(C)C(=O)c1ccccc12", "Potency": "inactive"},
      {"smiles": "O=C1C=C2C=C[C@H]3C[C@]2(O1)[C@@H]1CCCCN13", "Potency": "inconclusive: 29.1 µM [cytotoxic, single point]"},
      {"smiles": "C=CCn1c(O)c(C(CC)=NC2CC2)c(=O)[nH]c1=O", "Potency": "inactive"},
      {"smiles": "O=C1NC(=O)N(c2ccccc2)C(=O)/C1=C\\C=C\\c1ccccc1", "Potency": "inconclusive: 29.1 µM [cytotoxic, single point]"},
      {"smiles": "[Hg+][c]1ccccc1", "Potency": "inconclusive: 0.731 µM [cytotoxic, full curve, poor fit]"},
      {"smiles": "O=C1NC(=O)N(CCc2ccc(F)cc2)C(=O)/C1=C\\C=C\\c1ccccc1", "Potency": "active: 14.6 µM"},
      {"smiles": "Nc1ccc2ccc3cccc[n+]3c2c1", "Potency": "inactive"},
      {"smiles": "CCN(CC)CCCNC(=O)c1c(O)c2ccccc2n(Cc2ccccc2)c1=O", "Potency": "inconclusive: 25.9 µM [cytotoxic, partial curve, poor fit]"},
      {"smiles": "c1ccc2c(c1)Sc1ccccc1N2CC1CN2CCC1CC2", "note": "(stereo not given)", "Potency": "inactive"},
      {"smiles": "CCC(=NCc1cc(OC)cc(OC)c1)c1c(O)n(C2CCCCC2)c(=O)[nH]c1=O", "Potency": "inconclusive: 4.61 µM [cytotoxic, partial curve]"},
      {"smiles": "O=[N+]([O-])c1oc2ccc3ccccc3c2c1CCO", "Potency": "active: 5.8 µM"},
      {"smiles": "CCOC(=O)c1c(N)n(CCCOC(=O)c2ccco2)c2nc3ccccc3nc12", "Potency": "inconclusive: 23.1 µM [cytotoxic, partial curve, poor fit]"},
      {"smiles": "CCn1c(=O)cc(SCC(=O)N2CCC3(CC2)OCCO3)c2ccccc21", "Potency": "inconclusive: 5.62 µM [cytotoxic, partial curve, poor fit]"},
      {"smiles": "CN1C(=O)NC(=O)C2(CCCC2)C1=O", "Potency": "inactive"},
      {"smiles": "Cc1cc(Br)c(NC(=O)CN2CC=C(c3ccccc3)CC2)c(Br)c1", "Potency": "inactive"},
      {"smiles": "CC/C(=N\\Nc1ccccc1)c1c(O)[nH]c(=O)[nH]c1=O", "Potency": "inactive"},
      {"smiles": "O=C(Cn1cc(C(=O)c2ccccc2F)c2ccccc21)NC1CC1", "Potency": "inconclusive: 11.6 µM [cytotoxic, partial curve, poor fit]"},
      {"smiles": "Cc1nc2cc(-c3ccc(Cl)cc3)nn2c(C)c1CCC(=O)N1CCC2(CC1)OCCO2", "Potency": "active: 18.4 µM"},
      {"smiles": "C[C@H]1C[C@@H](C)C(=O)[C@@H]([C@H](O)CC2CC(=O)NC(=O)C2)C1", "Potency": "inconclusive: 2.06 µM [cytotoxic, partial curve, poor fit]"},
      {"smiles": "Cc1ccc(Cn2nnnc2CN2CCC(n3nnc4cc(C)ccc43)CC2)cc1", "Potency": "inconclusive: 29.1 µM [cytotoxic, single point]"},
      {"smiles": "COC(=O)C1=C(c2ccc(-c3ccccc3)c(F)c2)C[C@@H]2CC[C@H]1N2C(=O)NCc1cc(C)oc1C(F)(F)F", "Potency": "inconclusive: 8.2 µM [cytotoxic, partial curve, poor fit]"},
      {"smiles": "C=C1[C@H]2CC[C@H]3[C@]4(C)C[C@H](O[C@H]5O[C@H](CO)[C@@H](OS(=O)(=O)O)[C@H](OS(=O)(=O)O)[C@H]5OC(=O)CC(C)C)C[C@@H](C(=O)O)[C@H]4CC[C@]3(C2)[C@H]1O", "Potency": "inactive"},
      {"smiles": "Nc1c(C(=O)NCc2ccco2)c2nc3ccccc3nc2n1CCN1CCOCC1", "Potency": "inconclusive: 9.2 µM [cytotoxic, partial curve, poor fit]"},
      {"smiles": "C[C@]12CC[C@H]3[C@@H](CC[C@]4(O)C[C@@H](O)CC[C@]34C=O)[C@@]1(O)CC[C@@H]2C1=CC(=O)OC1", "Potency": "active: 0.92 µM"},
      {"smiles": "O=c1c2ccccc2nc(/C=C/c2ccc(F)cc2)n1-c1ccccc1O", "Potency": "inconclusive: 20.6 µM [cytotoxic, partial curve, poor fit]"},
      {"smiles": "CNC(=O)OCc1n(C)cc[n+]1C", "Potency": "inconclusive: 14.6 µM [rising, partial curve, poor fit]"},
      {"smiles": "COc1cccc(C2CC3C(=O)C=CC2N3Cc2ccccc2)c1", "note": "(stereo not given)", "Potency": "inconclusive: 29.1 µM [cytotoxic, single point]"},
      {"smiles": "C[C@]12CC[C@H](O)CC1=C([N+](=O)[O-])CC1C2CC[C@@]2(C)C1CC[C@@H]2O", "note": "(stereo not given in full)", "Potency": "inconclusive: 18.4 µM [cytotoxic, single point]"},
      {"smiles": "CC(C)CNC(=O)c1c(N)n(Cc2ccc3c(c2)OCO3)c2nc3ccccc3nc12", "Potency": "inconclusive: 18.4 µM [cytotoxic, single point]"},
      {"smiles": "CSc1ncc(C(=O)Nc2ccc(Cl)cc2C(=O)c2ccccc2)c(C)n1", "Potency": "inactive"},
      {"smiles": "Cc1ccc2ccccc2c1NC(=O)CNC1CCCCC1", "Potency": "inconclusive: 20.6 µM [cytotoxic, partial curve, poor fit]"},
      {"smiles": "Cc1ccc(NC(=O)[C@@H](NC(=O)N2C[C@H]3C[C@@H](C2)c2cccc(=O)n2C3)C(C)C)cc1", "Potency": "inconclusive: 6.51 µM [rising, partial curve]"},
      {"smiles": "CCCCc1nc2ccccc2c(=O)n1-c1ccc(Cl)cc1[N+](=O)[O-]", "Potency": "active: 4.11 µM"},
      {"smiles": "Cc1nn(CCC#N)c2c1P(=S)(N1CCCC1)OC(c1ccc(F)cc1)=N2", "note": "(stereo not given)", "Potency": "inconclusive: 16.4 µM [cytotoxic, partial curve, poor fit]"},
      {"smiles": "NP(=O)(OCCCCc1ccccc1)Oc1ccccc1Cl", "note": "(stereo not given)", "Potency": "inconclusive: 2.06 µM [rising, partial curve, poor fit]"},
      {"smiles": "Cc1cc(OC(=O)c2ccco2)c2c3c(c(=O)oc2c1)CCCC3", "Potency": "inconclusive: 29.1 µM [cytotoxic, single point]"},
      {"smiles": "CN1C(=O)C(=Cc2ccccc2OCc2ccccc2Cl)C(=O)N(C)C1=O", "Potency": "inactive"},
      {"smiles": "CCOC(=O)C1(CCc2ccccc2)CCN(Cc2csc(C(C)=O)c2)CC1", "Potency": "inconclusive: 1.3 µM [cytotoxic, full curve]"},
      {"smiles": "CCOP(=O)(OCC)C(C)(C)NC(=O)C(Cl)(Cl)Cl", "Potency": "inactive"},
      {"smiles": "COc1ccc(-n2nnnc2C(c2ccnc3ccccc23)N2CCC3(CC2)C(=O)NCN3c2ccccc2)cc1", "note": "(stereo not given)", "Potency": "inconclusive: 23.1 µM [cytotoxic, single point]"},
      {"smiles": "CCn1ccnc1CN1CCCC(C(=O)c2ccc(OC)cc2OC)C1", "note": "(stereo not given)", "Potency": "inconclusive: 3.66 µM [cytotoxic, full curve, poor fit]"},
      {"smiles": "COc1ccc(C(c2nnnn2Cc2ccccc2)N2CCC3(CC2)C(=O)NCN3c2ccccc2)cc1", "note": "(stereo not given)", "Potency": "inconclusive: 23.1 µM [cytotoxic, single point]"},
      {"smiles": "COc1cc2c(c(OC)c1O)-c1ccc(OC)c(=O)cc1C(NC(=O)C(F)(F)F)CC2", "note": "(stereo not given)", "Potency": "inconclusive: 32.6 µM [cytotoxic, single point]"}
    ]}
  ]
}
